Publication PMC7140707

Target: T1, TAP-tagged Mot3 (S. cerevisiae) (UniProt P54785)
T1 sequence: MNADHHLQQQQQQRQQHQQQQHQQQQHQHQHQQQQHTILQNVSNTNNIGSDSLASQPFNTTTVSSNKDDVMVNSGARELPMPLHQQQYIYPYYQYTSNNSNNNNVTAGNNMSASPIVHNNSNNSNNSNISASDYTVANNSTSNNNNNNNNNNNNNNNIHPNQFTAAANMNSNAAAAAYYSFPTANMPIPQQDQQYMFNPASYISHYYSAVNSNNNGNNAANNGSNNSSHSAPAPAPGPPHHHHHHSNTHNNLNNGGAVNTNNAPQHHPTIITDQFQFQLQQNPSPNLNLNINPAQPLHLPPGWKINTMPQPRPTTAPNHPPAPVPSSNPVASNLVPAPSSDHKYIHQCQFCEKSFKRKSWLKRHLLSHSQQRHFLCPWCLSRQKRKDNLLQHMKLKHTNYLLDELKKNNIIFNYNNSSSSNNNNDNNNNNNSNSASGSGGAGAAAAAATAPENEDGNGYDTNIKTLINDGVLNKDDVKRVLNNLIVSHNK
Assay: co-IP; TAP pull-down: extracts of yeast cells expressing a TAP-tagged protein and tagged Gis1 or Gis1 deletion protein incubated with IgG-Sepharose beads, 4 °C; Western blot with anti-TAP, anti-FLAG or anti-Myc

binding: binds
Substance: Myc-tagged Gis1ΔNC (yeast (S. cerevisiae)) (domain or fragment)

Results are given in words; binding and its absence hold for the method and conditions named. Binding seen in cells or lysates may run through a third protein. Binding can be weak; no strength is given. Sequences can lack the tags named with a protein.
